Values from PubChem BioAssay AID1159600 (NIAID, 2016).

Purpose: 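How human macrophage-like cells depend on pathway genes for TLR7/8 agonist response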 (primary screen)
Cell system: human THP-1 TNF reporter clone B5, made macrophage-like with PMA
Knock-down reagent: single siRNA against human genes
Timing: 4 h ligand stimulation, assayed 48 to 72 h after siRNA transfection
Conditions: R848 (TLR7/8 agonist) for 4 hours before lysis; dose not given
Detection: 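Robust z-score of firefly over renilla TNF promoter signal after 4 h R848, plate median/MAD normalised, relative to negative controls, averaged across replicates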
Scale: TNF reporter z-score: higher = stronger TNF promoter reporter signal after R848
Hit rule: 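siRNAs graded by distance of mean z-score from zero in steps of 1, 1.5, 2 and 2.5; active calls sit at roughly -1.5 or below, or 1.5 or above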
Meaning of the calls: active = strong change in TNF reporter (up or down); inactive = little change
In all, the deposit lists 756 reagents; shown is an unselected part. Over the whole deposit, 134 (18%) got an active call. 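Active includes both reduced and increased reporter signal, though most active siRNAs reduce it; R848 dose unknown.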 Reagents against one gene are numbered here. Not stated in the record: the amount of reagent.

IL33R #1 scored TNF reporter z-score 0.00084; inactive.
After knock-down of IL33R #2 the results were TNF reporter z-score -0.534; inactive.
Silencing of IL33R #3 gave: TNF reporter z-score 0.355; inactive.
Depletion of IL33R #4 resulted in: TNF reporter z-score 1; inactive.
Silencing of IL33R #5 resulted in: TNF reporter z-score -2.57; active.
Depletion of IL33R #6 came out at: TNF reporter z-score -0.0474; inactive.
With knock-down of PTPN6 #1, the record shows TNF reporter z-score -0.779; inactive.
Depletion of PTPN6 #2 resulted in: TNF reporter z-score 0.144; inactive.
Depletion of PTPN6 #3 came out at: TNF reporter z-score -0.528; inactive.
For PTPN6 #4, the values are TNF reporter z-score -1.17; inactive.
With knock-down of PTPN6 #5, the screen gave TNF reporter z-score -0.864; inactive.
PTPN6 #6 gave TNF reporter z-score -0.16; inactive.
Knock-down of TRADD #1 resulted in: TNF reporter z-score -3.44; active.
Depletion of TRADD #2 gave: TNF reporter z-score -0.934; inactive.
After knock-down of TRADD #3, the record shows TNF reporter z-score 0.785; inactive.
Against TRADD #4 the deposit lists TNF reporter z-score -0.205; inactive.
With knock-down of TRADD #5, the screen gave TNF reporter z-score 1.02; inactive.
For TRADD #6, the entry reads TNF reporter z-score -3.11; active.
IRAK1 #1 gave TNF reporter z-score -1.1; inactive.
Silencing of IRAK1 #2 came out at: TNF reporter z-score -2.82; active.
IRAK1 #3 gave TNF reporter z-score -3.37; active.
IRAK1 #4 scored TNF reporter z-score -1.15; inactive.
Silencing of IRAK1 #5 resulted in: TNF reporter z-score -2.16; active.
For IRAK1 #6 the deposit lists TNF reporter z-score -2.67; active.
